# At least one compound was matched to its structure with a doubt left.
# Experiments:
# Format in all cases: physicochemical
# [1] = Remote loading of DFO into preformed liposomes (loading efficiency, drug to lipid ratio after purification); details: for % loading efficiency: input D/L 400 g/mol, 0.5 h; for DFO loading: 200 g/mol, 45° C. 20 min; for Output D/L / Output DFO/PL: 20% ethanol; for Output D/L: input D/L 200 g/mol; for Output DFO/PL: 0.12M calcium acetate, 150 g/mol, 37° C. 30 min
# [2] = Active loading of DFO or doxorubicin into liposomes without membrane modifier, effect of temperature
# Procedure: Active loading of DFO using no ethanol (or other membrane modifier) was done using liposomes composed of either a fluid-phase lipid (egg PC) or a gel-phase lipid (HSPC), specifically, egg PC liposomes (3:2 Chol, 0.5 M ammonium sulfate, 90 nm) or HSPC liposomes (3:2 Chol, 250 mM ammonium sulfate, 90 nm) were remote loaded with DFO at a temperature range of 40-120° C. (pH 8.0) for either 10 min or 30 min. […] The target drug to lipid ratio was 170 g DFO/mol PL. After the DFO was loaded the tubes were rapidly cooled to room temperature. Unencapsulated DFO was removed by dialysis at 4° C., and drug/PL concentrations were analyzed by HPLC as described in paragraph [0108].
# This experiment was done in the absence of a chemical modifier. Liposomes were composed of either a fluid-phase lipid (egg PC) or a gel-phase lipid (HSPC), specifically, egg PC liposomes (3:2 Chol, 0.5 M ammonium sulfate, 90 nm) or HSPC liposomes (3:2 Chol, 0.25 M ammonium sulfate, 90 nm) were remote loaded with DFO or doxorubicin at a temperature range between 40-120° C. for 10 min. Doxorubicin concentration in the loading solution was 5 mg/mL and a target drug to lipid ratio of 170 g DFO/mol PL. DFO was loaded at pH 8 while doxorubicin was loaded at pH 6.5. Unencapsulated drug was removed by dialysis at 4° C., and drug/PL concentrations were analyzed by HPLC as described in paragraph [0108].
# [3] = Remote loading of deferasirox into liposomes (acetate gradient); details: for drug to lipid ratio: input 100 g drug/mol POPC
# [4] = POPC/Cholesterol (3/0.5), 120 mM calcium acetate, input 200 g drug/mol phospholipid
# [5] = POPC/Cholesterol (3/0.5), 120 mM calcium acetate, input near 100 g drug/mol phospholipid
# [6] = POPC/Cholesterol (3/0.5), 120 mM zinc acetate
# [7] = POPC/Cholesterol (3/0.5), 250 mM calcium acetate, input 200 g drug/mol phospholipid
# [8] = POPC/Cholesterol (3/0.5), 250 mM calcium acetate, input near 100 g drug/mol phospholipid
compound,measurement,setting,value
"CC(=O)N(O)CCCCCNC(=O)CCC(=O)N(O)CCCCCNC(=O)CCC(=O)N(O)CCCCCN [DFO, Deferoxamine]",% loading efficiency,"[1]; 100 DOPC/67 Chol/1 PEG-DSG, 90 mM ZnSO4, 60 mM (NH4)2SO4, pH 5, 70 C",0%
same,% loading efficiency,"[1]; 100 DOPC/67 Chol/1 PEG-DSG, 90 mM ZnSO4, 60 mM (NH4)2SO4, pH 6.5, RT, 10% sucrose",0%
same,% loading efficiency,"[1]; 100 DOPC/67 Chol/1 PEG-DSG, 90 mM ZnSO4, 60 mM (NH4)2SO4, pH 7.5, RT",0%
same,% loading efficiency,"[1]; 100 DOPC/67 Chol/1 PEG-DSG, 90 mM ZnSO4, 60 mM (NH4)2SO4, pH 9, 70 C",0%
same,% loading efficiency,"[1]; 100 DOPC/67 Chol/1 PEG-DSG, 180 mM ZnSO4, 120 mM (NH4)2SO4, pH 6.5, 65 C",0%
same,% loading efficiency,"[1]; 100 DOPC/67 Chol/1 PEG-DSG, 250 mM (NH4)2SO4, pH 6.5, 65 C",0%
same,% loading efficiency,"[1]; 100 DOPC/67 Chol/1 PEG-DSG, 250 mM (NH4)2SO4, pH 7.5, 65 C",0%
same,% loading efficiency,"[1]; 100 HSPC/67 Chol/1 PEG-DSG, 250 mM (NH4)2SO4, pH 5, 70 C",0%
same,% loading efficiency,"[1]; 100 HSPC/67 Chol/1 PEG-DSG, 250 mM (NH4)2SO4, pH 6.5, 65 C",0%
same,% loading efficiency,"[1]; 100 HSPC/67 Chol/1 PEG-DSG, 250 mM (NH4)2SO4, pH 7.5, 65 C",0%
same,% loading efficiency,"[1]; 100 HSPC/67 Chol/1 PEG-DSG, 250 mM (NH4)2SO4, pH 8, 70 C",0%
same,% loading efficiency,"[1]; 100 HSPC/67 Chol/1 PEG-DSG, 250 mM (NH4)2SO4, pH 9, 70 C",0%
same,loading efficiency,"[1]; DOPC liposomes, 250 mM ammonium sulfate, pH 8, 45° C. 45 min, input D/L 100 g/mol",60%
same,DFO loading,"[1]; DOPC/Chol (3/0.5), 250 mM ammonium sulfate, pH 8, absence of 1-butanol",no DFO loading was observed
same,Output D/L,"[1]; DOPC/Chol (3/0.5), internal solution (NH4)2SO4 250 mM",52.4 ± 0.4 g/mol
same,Output D/L,"[1]; DOPC/Chol (3/0.5), internal solution Sucrose 10% (w/w)",-0.5 ± 0.6 g/mol
same,DFO to lipid ratio,"[1]; HSPC/Cholesterol (3/2), 250 mM ammonium sulfate, 10 h at 65° C., pH 9",241.3±3.4 g drug/mol HSPC
same,DFO loading,"[1]; POPC/Chol (3/0.5), 250 mM ammonium sulfate, pH 8, absence of ethanol",no DFO loading was observed
same,Output DFO/PL,"[1]; POPC/Chol (3/0.5), loading pH 6.93",DFO Undetectable
same,Output DFO/PL,"[1]; POPC/Chol (3/0.5), loading pH 8.14",DFO Undetectable
same,Output DFO/PL,"[1]; POPC/Chol (3/0.5), loading pH 8.9",DFO Undetectable
same,Output DFO/PL,"[1]; POPC/Chol (3/0.5), loading pH 9.8",DFO Undetectable
same,internalization of DFO,"[1]; liposome containing sucrose (no gradient), 20% (v/v) ethanol",no ability to internalize DFO
same,active loading,"[2]; HSPC liposomes, 60° C., 10 min, pH 8",loaded poorly
same,loading (>20% efficient),"[2]; absence of ethanol, below 60° C., egg PC or HSPC liposomes, 170 g DFO/mol PL, pH 8.0",no significant
same,maximum loading efficiency,"[2]; target 170 g DFO/mol PL, 90-110° C., 10 min, pH 8, no membrane modifier",80%
O=C(O)c1ccc(-n2nc(-c3ccccc3O)nc2-c2ccccc2O)cc1 [deferasirox],loading efficiency,"[3]; HSPC liposomes containing 250 mM sodium sulfate, 100 g drug/mol HSPC",3.3±0.14%
same,loading efficiency,"[3]; HSPC liposomes containing calcium acetate, 100 g drug/mol",92.5±0.33%
same,loading efficiency,"[3]; POPC liposomes containing calcium acetate, 100 g drug/mol",94.8±1.46%
same,drug to lipid ratio,"[3]; POPC/Cholesterol (3/0.5), 120 mM calcium acetate",92.2±0.39 g drug/mol POPC
same,efficiency,[3]; [4],40.7%
same,final encapsulated drug ratio,[3]; [4],76.4±0.29 g drug/mol phospholipid
same,efficiency,[3]; [5],99.6%
same,final encapsulated drug ratio,[3]; [5],100.2±0.41 g drug/mol phospholipid
same,drug to lipid ratio,"[3]; POPC/Cholesterol (3/0.5), 120 mM magnesium acetate",94.6 g drug/mol POPC
same,encapsulation efficiency,[3]; [6],13.4%
same,maximum drug to lipid ratio,[3]; [6],23.1±0.62 g drug/mol POPC
same,efficiency,[3]; [7],92.0%
same,final encapsulated drug ratio,[3]; [7],186.1±5.53 g drug/mol phospholipid
same,efficiency,[3]; [8],99.2%
same,final encapsulated drug ratio,[3]; [8],104.0±1.46 g drug/mol phospholipid
